Assay results: patent US20250206776A1, “ENZYME-INSTRUCTED SELF-ASSEMBLY OF PEPTIDES CONTAINING N-TERMINAL PHOSPHO-AROMATIC CAPPING MOTIF, AND USES THEREOF” (BRANDEIS UNIVERSITY, priority 2021, published 2025)
Some results were stated once for a whole list of compounds, not compound by compound. At least one structure is not confirmed: it was looked up by name or label, or the drawing left a doubt.

System: alkaline phosphatase (ALP)
Conditions: fff peptides

Structure (SMILES) | enzymatic hydrogelation speed relative to pB as enzyme trigger
O=C(O)c1ccc(-c2ccc(OP(=O)(O)O)cc2)cc1 [pBP, phosphobiphenyl carboxylic acid] | 50-60 times faster
O=C(O)c1ccc2cc(OP(=O)(O)O)ccc2c1 [pNP, phosphonaphthoic acid] | 50-60 times faster
